# Some of the results follow. Baselines shift from plate to plate; read single values as rough.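 Hits were defined as a z-score below −3.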
# Molecular target: T1, YTHDF1 YTH domain (aa 365-554) (UniProt Q9BYJ9)
# T1 sequence (whole entry): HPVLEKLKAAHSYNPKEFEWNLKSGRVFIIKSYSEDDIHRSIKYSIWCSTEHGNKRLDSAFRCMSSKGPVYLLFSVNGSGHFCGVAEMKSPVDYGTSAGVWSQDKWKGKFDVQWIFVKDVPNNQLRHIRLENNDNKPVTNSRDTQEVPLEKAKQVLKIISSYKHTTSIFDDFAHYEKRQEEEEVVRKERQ
# Assay: tryptophan fluorescence intensity z-score (mean); higher = higher fluorescence, less quenching (negative = binding / quenching)
# Conditions: 10 µM
row,SMILES,tryptophan fluorescence intensity z-score
1,C[N+]12CC[C@@]34c5ccccc5N5C(=O)C[C@@H]6OCC=C(C1)[C@H](C[C@@H]32)[C@@H]6[C@H]54 (some centres undefined) (plate: M 21-22),inactive: 0.506
2,COc1ccc2c(c1OC)C(=O)O[C@@H]2[C@H]1c2cc3c(cc2CCN1C)OCO3 (plate: M 5-6),inactive: -0.414
3,O=C(NC(=O)c1c(F)cccc1F)Nc1ccc(Cl)cc1 (plate: M 23-24),inactive: 0.0223
4,C[C@@H]1C[C@@H]([C@H](O)CC2CC(=O)NC(=O)C2)C(=O)[C@@H](C)C1 (plate: M 7-8),inactive: 0.484
5,COc1cc2c(cc1OC)[C@@H]1C(=O)c3ccc4c(c3O[C@@H]1CO2)CC(C(C)C)O4 (some centres undefined) (plate: M 15-16),inactive: -0.0203
6,COc1ccc2c(c1OC)C(=O)O[C@H]2[C@H]1c2cc3c(cc2CCN1C)OCO3 (plate: M 17-18),inactive: 0.426
7,CC[C@@H](CO)NC(=O)[C@@H]1C=C2c3cccc4[nH]cc(c34)C[C@H]2N(C)C1 (plate: M 3-4),inactive: -0.348
8,CCCCOC(=O)c1ccccc1C(=O)OCCCC (plate: M 1-2),inactive: 0.558
9,C=CCc1cc(OC)c2c(c1OC)OCO2 (plate: M 21-22),inactive: -0.139
10,C[N+]1(C)CCc2cc3c(cc2[C@H]1[C@@H]1OC(=O)c2c1ccc1c2OCO1)OCO3 (plate: M 23-24),inactive: 0.0161
11,CCC(C)C(=O)OC1CC2(C)C(c3ccoc3)OC(=O)CC23OC2(C)OC34C(OC(=O)C(C)C)C3(O)C(OC(=O)C5(C)OC5C)C5(C)CC3(O)C(C)(C5CC(=O)OC)C14O2 (centres undefined) (plate: M 13-14),inactive: 0.581
12,c1cncc([C@@H]2CCCCN2)c1 (plate: M 17-18),inactive: 0.121
13,CC(C)(O)[C@@H]1[C@H]2OC(=O)[C@@H]1[C@]1(O)C[C@H]3O[C@]34C(=O)O[C@H]2[C@]14C (plate: M 13-14),inactive: 0.263
14,CC(C)(C#N)O[C@@H]1O[C@H](CO)[C@@H](O)[C@H](O)[C@H]1O (plate: M 19-20),inactive: 0.486
15,CC(=O)O[C@H]1C(=O)[C@@]2(C)[C@H]([C@H](OC(=O)c3ccccc3)[C@]3(O)C[C@H](O)C(C)=C1C3(C)C)[C@]1(OC(C)=O)CO[C@@H]1C[C@@H]2O (plate: M 19-20),inactive: 0.0212
16,C=C(C)[C@H]1Cc2c(ccc3c(=O)c4c(oc23)COc2cc(OC)c(OC)cc2-4)O1 (plate: M 15-16),inactive: 0.172
17,O=c1[nH]oc2c1CCNC2 (plate: M 23-24),inactive: 0.213
18,CC(N)C(O)c1ccccc1 (centres undefined) (plate: M 5-6),inactive: 0.0803
19,"CC1(C)C(=O)[C@@H]2O[C@@H]2[C@@]2(C)C1C[C@@H](O)[C@]1(C)C2CC[C@@]2(C)[C@H](c3ccoc3)OC(=O)C3OC321 (stereo partly drawn) [1,2alpha-EPOXYDEACETOXYDIHYDROGEDUNIN] (plate: M 13-14)",inactive: 0.145
20,CC1=CCCC2C1(C)CCC(C)C2(C)CC/C(C)=C/Cn1c[n+](C)c2c(N)ncnc21 (centres undefined) [AGELASINE(stereochemistryofditerpeneunknown)] (plate: M 17-18),inactive: 0.619

row,SMILES,tryptophan fluorescence intensity z-score
1,O=C(CCCN1CCC2(CC1)C(=O)NCN2c1ccccc1)c1ccc(F)cc1 (plate: M 7-8),inactive: -0.129
2,O=[N+]([O-])O[C@H]1CO[C@H]2[C@@H]1OC[C@H]2O[N+](=O)[O-] (plate: M 3-4),inactive: -0.175
3,COc1cc2ccc(=O)oc2c2ccoc12 (plate: M 15-16),inactive: 0.125
4,NCC1(CC(=O)O)CCCCC1 (plate: M 11-12),inactive: 0.588
5,O=c1cccc2n1C[C@@H]1CNC[C@H]2C1 (plate: M 19-20),inactive: 0.0836
6,C=CCc1ccc(OC)cc1 (plate: M 21-22),inactive: 0.177
7,CC[C@@H](C)C(=O)O[C@H]1[C@H](O)[C@H]2[C@@H](CN3C[C@@H](C)CC[C@H]3[C@@]2(C)O)[C@@H]2C[C@]34O[C@]5(O)[C@@H](OC(=O)[C@@](C)(O)CC)CC[C@@]3(C)[C@@H]5[C@@H](OC(C)=O)[C@@H](OC(C)=O)[C@H]4[C@@]21O (plate: M 17-18),inactive: 0.526
8,CCOC(=O)c1cncn1[C@H](C)c1ccccc1 (plate: M 11-12),inactive: -0.251
9,N[C@H](CO)Cc1ccccc1 (plate: M 23-24),inactive: 0.405
10,Cc1nccc2c1[nH]c1cc(O)ccc12 (plate: M 19-20),inactive: 0.203
11,CC(C)c1cc2c(c(O)c1O)[C@@]1(C(=O)O)CCCC(C)(C)[C@@H]1CC2 (plate: M 23-24),inactive: 0.0209
12,O=C(O)CC[N+](=O)[O-] [BOVINOCIDIN(3-nitropropionicacid)] (plate: M 19-20),inactive: 0.92
13,Oc1ccc2c3c1O[C@H]1[C@@H](O)CC[C@@]4(O)[C@@H](C2)N(CC2CCC2)CC[C@]314 (plate: M 7-8),inactive: 0.819
14,C/C=C/c1ccc2c(c1)OCO2 (plate: M 17-18),inactive: 0.737
15,CN1CCc2cc3c(cc2[C@H]1[C@@H]1OC(=O)c2c1ccc1c2OCO1)OCO3 (plate: M 17-18),inactive: -0.205
16,COc1cc2c(c(OC)c1OC)-c1ccc(OC)c(=O)cc1[C@@H](NC(C)=O)CC2 (plate: M 1-2),inactive: -0.0656
17,N#C[C@H](O[C@@H]1O[C@H](CO[C@@H]2O[C@H](CO)[C@@H](O)[C@H](O)[C@H]2O)[C@@H](O)[C@H](O)[C@H]1O)c1ccccc1 (plate: M 19-20),inactive: 0.511
18,CC[C@@H](CO)NC(=O)[C@@H]1C=C2c3cccc4c3c(cn4C)C[C@H]2N(C)C1 (plate: M 11-12),inactive: -1.17
19,CC1C=CC=CCCC=CC=CC=CC=CC(OC2OC(C)C(O)C(N)C2O)CC2OC(O)(CC(O)C(O)CCC(O)CC(O)CC(O)CC(=O)OC(C)C(C)C1O)CC(O)C2C(=O)O (centres undefined) (plate: M 3-4),inactive: -0.124

# Individual results from the results shown:
# Entry for NCC1(CC(=O)O)CCCCC1 (plate: M 11-12) under tryptophan fluorescence intensity z-score: inactive: 0.588
# Entry for C=CCc1ccc(OC)cc1 (plate: M 21-22) under tryptophan fluorescence intensity z-score: inactive: 0.177
